PubChem BioAssay AID1259254 – NCATS – 2017
Assay: 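Genome-wide screen for genes that prevent DNA re-replication in cancer cells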 (primary screen). System: human HCT116 colorectal cancer cells. Reagent: single siRNA against human genes. Timing: 3 days. Measurement: 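Nuclei stained with Hoechst and imaged; cell-cycle phase assigned by DNA content; G2 share scaled per plate, non-targeting siRNA 0%, GMNN siRNA 100%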. Scale: G2 robust z-score and G2 cells, % of GMNN control: higher = more G2 cells, more excess DNA replication; raw share of cells in G2: higher = larger share of cells with G2 DNA content. Rule for the call: 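An siRNA counts as active if its G2 robust z-score lies at least 5 MADs above the screen median; here such calls match roughly 38% of GMNN control or more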.
The whole screen tested about 59,000 reagents; shown is a random part of them. Over the whole deposit, about 1,550 (2.6%) got an active call. 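G2 share is only a proxy for re-replication; each gene was hit by three separate siRNAs, and active genes were retested.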 Raw values vary from plate to plate and are shown uncorrected. The numbers tell different reagents against one gene apart. Not stated in the record: the amount of reagent.

no.	target	reagent	G2 robust z-score	G2 cells, % of GMNN control	raw share of cells in G2 (%)	Call
1	NEBL	1	-1.18	-5.35	2.11	inactive
2	NEBL	2	-1.3	-6.18	3.01	inactive
3	NEBL	3	-1.27	-5.96	4.13	inactive
4	NEBL	4	-0.465	-0.307	4.5	inactive
5	NEBL	5	-0.776	-2.49	2.92	inactive
6	NEBL	6	0.165	4.13	5.2	inactive
7	PIP	1	1.31	12.2	10.2	inactive
8	PIP	2	0.609	7.25	7.09	inactive
9	PIP	3	0.805	8.63	6.47	inactive
10	RLF	1	-0.737	-2.22	4.21	inactive
11	RLF	2	-0.57	-1.04	4.28	inactive
12	RLF	3	-0.196	1.58	4.67	inactive
13	ARF1	1	0.366	5.54	6.61	inactive
14	ARF1	2	-0.369	0.371	4.13	inactive
15	ARF1	3	4.99	38	18.6	inactive
16	NSG2	1	2.89	23.3	12	inactive
17	NSG2	2	5.91	44.5	23	active
18	NSG2	3	-0.231	1.34	3.63	inactive
19	PDLIM3	1	0.255	4.76	5.55	inactive
20	PDLIM3	2	-0.374	0.339	4.3	inactive
21	PDLIM3	3	-0.513	-0.643	5.87	inactive
22	GLIPR1	1	0.403	5.81	7.26	inactive
23	GLIPR1	2	0.992	9.95	8.24	inactive
24	GLIPR1	3	-1.08	-4.65	1.43	inactive
25	HELZ	1	-0.641	-1.54	4.12	inactive
26	HELZ	2	-0.472	-0.35	3.08	inactive
27	HELZ	3	1.55	13.9	10.5	inactive
28	MOCS1	1	5.32	40.4	22.2	active
29	MOCS1	2	-0.707	-2.01	3.43	inactive
30	MOCS1	3	-0.0538	2.59	4.29	inactive
31	RASGRF1	1	5.1	38.8	18.3	active
32	RASGRF1	2	3.49	27.5	15.2	inactive
33	RASGRF1	3	0.539	6.76	6.39	inactive
34	SPACA9	1	0.312	5.16	7.01	inactive
35	SPACA9	2	-0.312	0.771	4.45	inactive
36	SPACA9	3	0.322	5.23	5.13	inactive
37	TMEM156	1	-0.958	-3.77	2.88	inactive
38	TMEM156	2	-0.233	1.33	4.88	inactive
39	TMEM156	3	-0.614	-1.35	2.01	inactive
40	RRAD	1	-0.733	-2.19	4.22	inactive
41	RRAD	2	2.83	22.9	13.4	inactive
42	RRAD	3	-0.46	-0.267	4.06	inactive

Part of the list above, set out differently.
| target | reagent | G2 robust z-score | G2 cells, % of GMNN control | raw share of cells in G2 (%) | Call |
| --- | --- | --- | --- | --- | --- |
| SPACA9 | 1 | 0.312 | 5.16 | 7.01 | inactive |
| SPACA9 | 2 | -0.312 | 0.771 | 4.45 | inactive |
| SPACA9 | 3 | 0.322 | 5.23 | 5.13 | inactive |

Continued.
no.	target	reagent	G2 robust z-score	G2 cells, % of GMNN control	raw share of cells in G2 (%)	Call
43	NFIX	1	-0.572	-1.06	2.85	inactive
44	NFIX	2	2.59	21.2	13.5	inactive
45	NFIX	3	3.65	28.7	16.8	inactive
46	WARS2	1	-0.0703	2.47	7.45	inactive
47	WARS2	2	-0.266	1.09	4.19	inactive
48	WARS2	3	1.95	16.7	13	inactive
49	FADD	1	-0.504	-0.58	4.87	inactive
50	FADD	2	-0.521	-0.701	3.62	inactive
51	FADD	3	-0.381	0.286	3.45	inactive
52	ESRRB	1	-1.15	-5.14	2.78	inactive
53	ESRRB	2	3.72	29.2	15.5	inactive
54	ESRRB	3	0.0796	3.53	5.13	inactive
55	DERL2	1	1.3	12.1	11.5	inactive
56	DERL2	2	3.25	25.8	13.8	inactive
57	DERL2	3	11.4	83.5	35.8	active
58	ZNF383	1	-0.0368	2.71	4.02	inactive
59	ZNF383	2	0.512	6.57	5.45	inactive
60	ZNF383	3	0.162	4.11	4.97	inactive
61	ZBTB40	1	0.11	3.74	4.77	inactive
62	ZBTB40	2	-1.25	-5.8	3.41	inactive
63	ZBTB40	3	0.554	6.86	6.21	inactive
64	HMGN2	1	-0.256	1.16	6.13	inactive
65	HMGN2	2	0.948	9.63	7.73	inactive
66	HMGN2	3	-0.939	-3.64	3.72	inactive
67	IL2	1	-0.445	-0.164	4.14	inactive
68	IL2	2	-1.06	-4.52	3.4	inactive
69	IL2	3	0.798	8.58	8.95	inactive
